# Results from patent US6369109B1, “Betulinic acid and derivatives thereof useful for the treatment of neuroectodermal tumor” (Deutsches Krebsforschungszentrum Stiftung des Offentlichen …, priority 1998, dated 2002).
# At least one structure is not confirmed: it was looked up by name or label, or the drawing left a doubt.
# What was measured:
# [1] = system: isolated nuclei with mitochondria from SHEP cells; test: Cell-free system of apoptosis: nuclear fragmentation of isolated nuclei; type: biochemical, human
# Procedure: For determination of nuclear fragmentation, nuclei (10^3/μl) were incubated with mitochondria (1 μg/μl) in buffer D (10 mM HEPES, pH 7.4, 50 mM NaCl, 2 mM MgCl2, 5 mM EGTA, 1 mM DDT, 2 mM ATP, 10 mM phosphocreatine, 50 μg/ml creatine kinase, 10 μM cytochalasin B) for 2 h at 37° C. Nuclei were stained with propidium iodide ([…]) and analyzed by flow cytometry. For determination of caspase activation, cytosolic extracts (2 μg/μl) were incubated with mitochondria (1 μg/μl), cytochrome c (0.1-100 μM) or AIF-containing mitochondrial supernatant (0.5 μg/μl) in buffer D for 2 h at 37° C. […]
# Mitochondria isolated from SHEP cells, transfected with bcl-2 or bcl-XL or a neomycin resistance vector only, were incubated for 6 h with nuclei and 0.1-10 μg/ml betulinic acid (FIG. 8A) or 5 mM atractyloside (FIG. 8B) in the presence or absence of 50 μM bongkrekic acid or 60 μMZ-VAD-fnk. […] Nuclear apoptosis was determined by FACS analysis of propidium iodide stained DNA content.
# SHEP cells transfected with bcl-2 or bcl-XL or a neomycin resistance vector only were treated with 10 μg/ml betulinic acid or 5 mM atractyloside for 6-24 h (FIG. 8C). […] Nuclear apoptosis was determined by FACS analysis of propidium iodide stained DNA content. […]
# [2] = system: caspase-3, caspase-8 and PARP in cytosolic extracts of SHEP cells; test: Cell-free system of apoptosis: cleavage of caspases in cytosolic extracts by mitochondria; type: biochemical, human
# Procedure: For determination of nuclear fragmentation, nuclei (10^3/μl) were incubated with mitochondria (1 μg/μl) in buffer D (10 mM HEPES, pH 7.4, 50 mM NaCl, 2 mM MgCl2, 5 mM EGTA, 1 mM DDT, 2 mM ATP, 10 mM phosphocreatine, 50 μg/ml creatine kinase, 10 μM cytochalasin B) for 2 h at 37° C. Nuclei were stained with propidium iodide ([…]) and analyzed by flow cytometry. For determination of caspase activation, cytosolic extracts (2 μg/μl) were incubated with mitochondria (1 μg/μl), cytochrome c (0.1-100 μM) or AIF-containing mitochondrial supernatant (0.5 μg/μl) in buffer D for 2 h at 37° C. Partially purified AIF (cytochrome c-free) was prepared as previously described (0.5 mg/ml, Susin et al., 1997, J. Exp. Med. 186, 5-37; Susin et al., 1996, J. Exp. Med. 184, 1331-41). Proteins were separated by 15% SDS-PAGE and Western blot analysis was performed as described above. […]
# For determination of nuclear fragmentation, nuclei (10^3/μl) were incubated with mitochondria (1 μg/μl) in buffer D (10 mM HEPES, pH 7.4, 50 mM NaCl, 2 mM MgCl2, 5 mM EGTA, 1 mM DDT, 2 mM ATP, 10 mM phosphocreatine, 50 μg/ml creatine kinase, 10 μM cytochalasin B) for 2 h at 37° C. Nuclei were stained with propidium iodide ([…]) and analyzed by flow cytometry (Susin et al., 1997 Exp. Cell Res. 236:397-403). […]
smiles,measurement,setting,value
"C=C(C)[C@@H]1CC[C@]2(C(=O)O)CC[C@]3(C)[C@H](CC[C@@H]4[C@@]5(C)CC[C@H](O)C(C)(C)[C@@H]5CC[C@]43C)[C@@H]12 [betulinic acid, 3β-3-hydroxylup-20(29)-en-28-oic acid]",DNA fragmentation by supernatants from treated mitochondria,"[1]; 10 μg/ml betulinic acid or 5 mM atractyloside 0.5 h, supernatant with nuclei 2 h, FIG. 10B",induced DNA fragmentation
same,"nuclear DNA fragmentation, mitochondria plus nuclei plus drug","[1]; Neo control mitochondria, 0.1-10 μg/ml betulinic acid or 5 mM atractyloside, 6 h, FIG. 8A, 8B",resulted in nuclear DNA fragmentation
same,caspase cleavage in cytosolic extracts by supernatants from treated mitochondria,"[2]; 10 μg/ml betulinic acid or 5 mM atractyloside 0.5 h, extracts 6 h, FIG. 10A","caspase-8, -3 and PARP were cleaved"
same,caspase cleavage in cytosolic extracts by treated isolated mitochondria,"[2]; 10 μg/ml betulinic acid or 5 mM atractyloside, 6 h, FIG. 9A",cleavage of caspases was observed
